Laboratory results: PubChem BioAssay AID743121 (NCATS, 2013)
The whole screen tested about 26,000 reagents; below is a part drawn at random. 167 of all reagents (0.63%) were called active. 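Calls are per gene from RSA p-values that are not deposited; an individual active-marked siRNA can sensitise only weakly.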 A number with no mark means an inactive call. The numbers tell different reagents against one gene apart. Not all columns of the deposit are shown.

Test: 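Partners whose loss is lethal together with topoisomerase I blockade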 (primary screen)
Cell system: MDA-MB-231 cells, a human breast cancer line
Knock-down reagent: single siRNA against human genes, 20 nM siRNA (0.8 pmol per well)
Timing: 120 h (drug added 48 h after transfection, read 72 h later)
Treatment: camptothecin 20 nM (about EC30) for 72 h; vehicle 0.1% DMSO in parallel plates
Detection: 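Cell viability by ATP luminescence (CellTiter-Glo) as % of non-targeting siRNA wells, and the log2 ratio of viability without drug over viability with camptothecin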
Direction: log2 vehicle/camptothecin viability: higher = stronger sensitisation to camptothecin
Active means: 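Each gene scored by redundant siRNA activity (RSA) over its individual siRNA ratios; a gene is called active at p < 0.001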

log2 vehicle/camptothecin viability, by target gene and reagent
FOXC2 (forkhead box C2): #1 -0.0811; #2 -0.198; #3 -0.252; #4 -0.0501
COPB2 (coat protein complex I subunit beta 2): #1 1.24; #2 -0.35; #3 -0.404
ARID1A (AT-rich interaction domain 1A): #1 -0.385; #2 0.565; #3 -0.145; #4 -0.394
UQCRC1 (ubiquinol-cytochrome c reductase core protein 1): #1 -0.146; #2 0.0868; #3 -0.523; #4 -0.663
GDF10 (growth differentiation factor 10): #1 -0.206; #2 -0.484; #3 -0.121; #4 -0.158
MMP16 (matrix metallopeptidase 16): #1 0.0914; #2 -0.331; #3 -0.05; #4 -0.142
EXT1 (exostosin glycosyltransferase 1): #1 -0.0344; #2 -0.118; #3 -0.513; #4 0.0958
SLC24A5: #1 0.0115; #2 -0.111; #3 0.256; #4 0.151
CARD11 (caspase recruitment domain family member 11): #1 -0.0123; #2 -0.222; #3 -0.368
SSTR2 (somatostatin receptor 2): #1 -0.235; #2 -0.113; #3 0.0634; #4 -0.463
LOXL2 (lysyl oxidase like 2): #1 -0.319; #2 -0.0578; #3 -0.194; #4 -0.0776
ASNSD1 (asparagine synthetase domain containing 1): #1 0.0261; #2 -0.177; #3 0.985; #4 0.267
FBXL7 (F-box and leucine rich repeat protein 7): #1 0.0543; #2 -0.0974; #3 -0.631; #4 -0.00726
RNF2 (ring finger protein 2): #1 0.0696; #2 -0.34; #3 -0.348; #4 0.195
KLK3 (kallikrein related peptidase 3): #1 -0.12; #2 -0.0505; #3 1.39; #4 -0.321; #5 0.0437; #6 -0.236; #7 -0.245; #8 0.163
CST3 (cystatin C): #1 -0.325; #2 -0.986; #3 -0.498
PPP1R3A (protein phosphatase 1 regulatory subunit 3A): #1 -0.305; #2 0.515; #3 0.782; #4 -0.479

Already shown: 8 of the entries above.
log2 vehicle/camptothecin viability, by target gene and reagent
ASNSD1 (asparagine synthetase domain containing 1): #2 -0.177; #3 0.985; #4 0.267
FBXL7 (F-box and leucine rich repeat protein 7): #1 0.0543; #2 -0.0974; #3 -0.631; #4 -0.00726
RNF2 (ring finger protein 2): #1 0.0696
